The assay in a line: qHTS Assay for Lipid Storage Modulators in Drosophila S3 Cells.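 For cell number change: cells counted by Cell Tracker Red CMTPX staining in the red channel.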 The settings on record: BODIPY lipid droplet fluorescence, 18-24 h; for cell number change: measured here: cell count max response, cells fed with added oleic acid. The essentials:
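Laser-scanning cytometry quantifies lipid droplet accumulation (500–530 nm total intensity; droplet/cell object ratio) in oleic acid-fed (400 uM added) Drosophila S3 cells treated with a concentration series. 20 uM Triacsin C defined 100% inhibition.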

Where [1] appears, read: measured here: cell number channel AC50, cells fed with added oleic acid.
Where [2] appears, read: measured here: lipid fluorescence (Fed channel) AC50, cells fed with added oleic acid.

This is one part of the list. Further columns of the screen follow, without active or inactive calls. Most of these compounds were active or inconclusive in the main read-out, so they are no random draw. Potencies come from curve fits of mixed quality, noted in brackets.

Regarding `C=CCn1c(O)c(C(CC)=NCCCO)c(=O)[nH]c1=O`, the cell number change is 2.82%.

Take `O[C@H]1C2CCC1C(N1CCCCC1)CC2` (some centres not stated): the cell number change was -44.1%. For the same compound, the AC50 under setting [1] is 1.16 µM [falling, full curve]. Moreover, under setting [2], the AC50 is 29.1 µM [falling, single point].

On to `COc1ccc(OC(=O)N(C)C)c(CN(C)C)c1`, for which the cell number change is -22.6%. The concentration at half-maximal activity (AC50) under setting [2] is 5.8 µM [falling, partial curve, poor fit].

Turning to `COc1ccccc1OCCCn1cc(C(=O)C2CC2)c2ccccc21`, the cell number change is 15.9%. In addition, the AC50 under setting [2] is 16.4 µM [rising, single point].

For the compound `c1ccc(CN2CCc3nc4ccccc4cc3C2)cc1`, the concentration at half-maximal activity (AC50) under setting [2] was 0.0146 µM [rising, full curve, poor fit].

As for `Cn1cc(C(=O)NC2CC2)c2ccccc21`, the cell number change worked out at 8.56%.

As for `Cc1cc(C)nc(/N=C(\N)c2c(O)[nH]c(=O)[nH]c2=O)n1`, under setting [2], the concentration at half-maximal activity (AC50) was 0.651 µM [rising, single point].

Take `CN(C)C1(CNC(=O)c2ccc(Cl)c(S(=O)(=O)NCc3ccco3)c2)CCCCC1`: the cell number change is -11%.

Regarding `Nc1ccccc1C(=O)OCCc1ccccc1`, the cell number change was -63.2%. Besides, the half-maximal activity concentration (AC50) under setting [1] was 29.1 µM [falling, single point].

As for `O=C1NC(=O)C(CCc2ccncc2)(CCc2ccccn2)C(=O)N1c1ccc(Br)cc1` (configuration not stated), the cell number change came to 21.1%. The half-maximal activity concentration (AC50) under setting [2] was 32.6 µM [rising, single point].

Consider `COC(=O)C1=C(c2ccc(C(C)=O)cc2)C[C@@H]2CC[C@H]1N2C(=O)N1CCCC1`, for which the cell number change was -32.5%. Moreover, the half-maximal activity concentration (AC50) under setting [1] was 0.146 µM [falling, full curve, poor fit]. For the same compound, the AC50 under setting [2] is 29.1 µM [falling, single point].

Consider `COc1ccc(/C=C/C(=O)NC(=S)N2C[C@H]3C[C@H](C2)c2cccc(=O)n2C3)cc1OC`, for which the cell number change was -7.12%.

For `CC(C)COc1ccc(C2(C#N)CC[N+](C)(C)CC2)cc1`, the cell number change came to 21.6%. In addition, the concentration at half-maximal activity (AC50) under setting [2] is 7.31 µM [rising, partial curve, poor fit].

Consider `CCCCCn1c(=O)c(C(=O)NC(C)c2ccccc2)c(O)c2ccccc21` (configuration not stated), for which the cell number change is 10.2%. For the same compound, the concentration at half-maximal activity (AC50) under setting [2] is 20.6 µM [rising, partial curve].

Regarding `Cn1cc(NC(=O)CCl)cn1`, the cell number change is -62.7%. For the same compound, under setting [1], the concentration at half-maximal activity (AC50) was 0.82 µM [falling, full curve, poor fit]. Besides, the AC50 under setting [2] was 23.1 µM [falling, single point].

On to `CCOC(=O)Cn1cc(C(=O)c2ccccc2)c2ccccc21`, for which the cell number change was -20.6%. The AC50 under setting [2] was 29.1 µM [falling, single point].

As for `Clc1ccc2c(c1)C(c1ccccc1Cl)=NCc1nnc(N3CCN(CCOc4ccccc4)CC3)n1-2`, the cell number change was -39.1%. Besides, the concentration at half-maximal activity (AC50) under setting [1] is 25.9 µM [falling, single point]. The half-maximal activity concentration (AC50) under setting [2] was 25.9 µM [falling, single point].

(Values after PubChem BioAssay AID2685 (National Center for Advancing Translational Sciences (NCATS), 2010).)
